Patent US11241440B2, “Dihydrooxadiazine compounds for treating infections and cancer” (VALORALIA I MÁS D, SL, priority 2016, dated 2022)

Tested on: Candida parapsilosis
Assay: EUCAST broth dilution antifungal susceptibility test (MIC)
Assay type: cell-based
Settings: 50% inhibition, 24 hours at 35° C., dilution range 64 to 0.12 mg/l
Method: Filamentous fungi and yeasts strains, from clinical origin, were supplied by Microbiology Service from The Princess Hospital, Madrid. They are detailed in Table III. Filamentous fungi and yeast cells suspensions in distilled water was prepared from a culture of 24-48 h, depending on species, in Sabouraud agar. Each suspension was adjusted to a fixed size inoculum of 1-5×10^8 CFU/ml with a spectrophotometer (Ferraro, M J National Committee for Clinical Laboratory Standards. 2000). Antifungal susceptibility tests were developed following the standardized methodology detailed by the European Committee on Antimicrobial Susceptibility Testing (EUCAST) documents 7.2 (method for the determination of broth dilution minimum inhibitory concentrations of antifungal agents for yeasts EDef 7.2) and 9.2 (Method for the determination of broth dilution minimum inhibitory concentrations of antifungal agents for conidia forming foulds). The compound was dissolved in DMSO and diluted with RPMI plates with 2% glucose to pH 7 with MOPS buffer. […] Plates were inoculated with a yeast suspension or filamentous fungal spores (1-5×10^5 cls/ml). The results were evaluated after 24 hours incubation at 35° C. and absorbance reading at 530 nm.

MIC (minimum inhibitory concentration): 1
SMILES: OC(Cn1cncn1)(Cn1cncn1)c1ccc(F)cc1F [Fluconazole]
